Source: publication doi:10.1101/296376
Results are given in words; binding and its absence hold for the method and conditions named. Some results given as binding are weak or reduced against the parent protein; the word gives no strength.

Chains of the proteins cited; added tags and fusions are not shown. Residues count along the entry.
EGFP-Myo19-tail (aa 824-970) (Q96H55, residues 824-970): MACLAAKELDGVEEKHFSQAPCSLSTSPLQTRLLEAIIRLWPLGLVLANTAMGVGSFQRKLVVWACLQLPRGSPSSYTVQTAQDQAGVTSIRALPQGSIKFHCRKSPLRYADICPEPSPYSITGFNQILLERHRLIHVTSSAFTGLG
EGFP-Myo19 N-tail (aa 824-897) (Q96H55, residues 824-897): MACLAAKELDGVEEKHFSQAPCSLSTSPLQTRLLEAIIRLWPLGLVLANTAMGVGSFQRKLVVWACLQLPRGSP
EGFP-Myo19 C-tail (aa 898-970) (Q96H55, residues 898-970): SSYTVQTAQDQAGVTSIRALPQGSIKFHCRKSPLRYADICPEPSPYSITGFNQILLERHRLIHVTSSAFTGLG

Columns and labels:
Assay in all cases: retargeting to early endosomes
[1] = biological target: T1, mCherry-Miro1(T18N)ΔTM-EE (human) (UniProt Q8IXI2)
T1 sequence: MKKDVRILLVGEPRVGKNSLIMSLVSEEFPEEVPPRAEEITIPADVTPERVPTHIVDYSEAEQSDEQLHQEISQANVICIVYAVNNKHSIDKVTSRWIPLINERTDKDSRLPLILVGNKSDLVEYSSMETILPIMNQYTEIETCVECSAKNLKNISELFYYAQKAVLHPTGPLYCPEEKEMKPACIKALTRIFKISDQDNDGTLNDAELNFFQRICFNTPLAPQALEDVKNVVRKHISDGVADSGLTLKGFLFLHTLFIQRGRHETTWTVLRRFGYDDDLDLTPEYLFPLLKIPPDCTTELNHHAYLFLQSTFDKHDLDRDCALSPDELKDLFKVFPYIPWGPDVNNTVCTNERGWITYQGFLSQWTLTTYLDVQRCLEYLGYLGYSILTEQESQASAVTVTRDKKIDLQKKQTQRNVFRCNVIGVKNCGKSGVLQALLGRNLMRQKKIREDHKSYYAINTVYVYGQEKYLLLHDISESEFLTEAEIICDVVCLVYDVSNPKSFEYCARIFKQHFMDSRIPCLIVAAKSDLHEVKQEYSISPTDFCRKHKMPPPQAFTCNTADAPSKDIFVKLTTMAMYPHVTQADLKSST

[2] = biological target: T2, mCherry-Miro-1-aa1-408-2xFYVE (human) (UniProt Q8IXI2)
T2 sequence: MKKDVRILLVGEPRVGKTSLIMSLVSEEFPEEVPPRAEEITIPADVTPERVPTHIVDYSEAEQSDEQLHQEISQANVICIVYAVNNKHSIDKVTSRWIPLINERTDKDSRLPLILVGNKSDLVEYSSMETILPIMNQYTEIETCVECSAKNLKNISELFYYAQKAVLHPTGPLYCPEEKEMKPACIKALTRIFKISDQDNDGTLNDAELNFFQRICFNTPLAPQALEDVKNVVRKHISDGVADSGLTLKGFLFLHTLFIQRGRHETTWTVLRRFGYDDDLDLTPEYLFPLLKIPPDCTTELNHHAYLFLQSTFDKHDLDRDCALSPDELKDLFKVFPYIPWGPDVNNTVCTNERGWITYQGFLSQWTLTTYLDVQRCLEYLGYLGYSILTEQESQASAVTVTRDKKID

[3] = biological target: mCherry-Miro-1-ΔTM-2xFYVE (human) (UniProt Q8IXI2)

Row | binding [1] | binding [2] | binding [3] | Substance
1 | no binding | binds | binds | EGFP-Myo19-tail (aa 824-970) (from UniProt Q96H55 824-970) (domain or fragment)
2 | no binding | binds | binds | EGFP-Myo19 C-tail (aa 898-970) (from UniProt Q96H55 898-970) (domain or fragment)
3 | – | – | no binding | EGFP-Myo19 N-tail (aa 824-897) (from UniProt Q96H55 824-897) (domain or fragment)
